# Measurements as given in EP0339193A1 (FARMITALIA CARLO ERBA S.r.l., priority 1988, dated 1989).
# Strings that start with PEPTIDE1 are HELM notation: dots part the residues, brackets hold end groups and non-standard residues. * marks the point of attachment. Cbz = O=C(OCc1ccccc1)*; Boc = CC(C)(C)OC(=O)*; OBn = c1ccc(CO*)cc1
# Assay: general procedure: solution-phase peptide synthesis; EEC / NMM (mixed anhydride)
# Conditions: coupling step, HCl; trifluoroacetates when Boc-deblocking with CF3COOH
row,Substance,step yield
1,Boc-TQWAVG-OH,84%
2,Boc-QWAVG-OBn,83%
3,Boc-TQWAVG-OBn,78%
4,Cbz-QWAVG-OBn,81%
5,PEPTIDE1{[Boc].T.Q.W.A.V.G.[dF].L.M.[am]}$$$$V2.0,92%
6,PEPTIDE1{[Boc].T.Q.W.A.V.G.L.M.[am]}$$$$V2.0,66%
7,Boc-WAVG-OBn,78%

# Same assay, conditions: late stage modification step, HCl
row,Substance,step yield
1,PEPTIDE1{T.Q.W.A.V.G.[dF].L.M.[am]}$$$$V2.0,84%
2,PEPTIDE1{T.Q.W.A.V.G.L.M.[am]}$$$$V2.0,58%

# Same assay, conditions: late stage modification step, HCl; trifluoroacetates when Boc-deblocking with CF3COOH
row,Substance,step yield
1,Boc-TQWAVG-OH,75%
2,HCl.H-Trp-Ala-Val-Gly-OBzl,98%
3,HCl.H-Gln-Trp-Ala-Val-Gly-OBzl,93%
